# Primary screen of a compound library

By UniProt entry, the sequences of proteins in these tests, tags left out.
UniProt E9BF75, entry or part of it: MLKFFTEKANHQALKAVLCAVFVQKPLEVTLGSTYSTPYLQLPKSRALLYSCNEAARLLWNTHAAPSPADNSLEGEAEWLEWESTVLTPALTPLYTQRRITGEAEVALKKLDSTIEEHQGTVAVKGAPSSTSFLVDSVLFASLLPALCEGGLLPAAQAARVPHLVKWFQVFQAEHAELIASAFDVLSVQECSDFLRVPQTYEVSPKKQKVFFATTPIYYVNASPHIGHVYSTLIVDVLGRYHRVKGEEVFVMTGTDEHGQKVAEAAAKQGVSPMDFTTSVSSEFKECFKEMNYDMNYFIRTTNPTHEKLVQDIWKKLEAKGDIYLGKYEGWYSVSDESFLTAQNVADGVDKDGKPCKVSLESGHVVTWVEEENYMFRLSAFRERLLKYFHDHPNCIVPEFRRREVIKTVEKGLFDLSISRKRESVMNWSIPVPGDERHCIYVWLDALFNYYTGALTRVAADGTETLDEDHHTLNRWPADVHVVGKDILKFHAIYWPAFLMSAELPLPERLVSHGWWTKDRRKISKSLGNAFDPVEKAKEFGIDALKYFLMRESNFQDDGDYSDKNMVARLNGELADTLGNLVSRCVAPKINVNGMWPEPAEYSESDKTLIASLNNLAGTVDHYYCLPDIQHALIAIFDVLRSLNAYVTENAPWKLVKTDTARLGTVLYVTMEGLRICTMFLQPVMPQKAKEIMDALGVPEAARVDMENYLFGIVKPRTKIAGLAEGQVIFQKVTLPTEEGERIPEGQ

Source: ChEMBL document CHEMBL3988442, “University of Dundee, Small-Polar-MMV Screening Library” (2021).

A: 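Assay on Mycobacterium tuberculosis, filed only as a heat shock assay from Cornell; the read-out is not stated. The concentration is filed as 10 mM, unlikely as a test dose, so the dose is not known. The record gives no direction; compounds that gave an IC50 in retests scored well above the rest, so higher reads as stronger inhibition. Size under these conditions: about 69,000 compounds, about 930 of them at 50% or above in at least one test.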
B: 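Methionyl-tRNA synthetase (putative), Leishmania donovani (UniProt E9BF75). Primary screen of methionyl-tRNA synthetase; the read-out is not stated. The test concentration is not given. The values are filed as inhibition. About 68,000 compounds were tested under these conditions; 0.035% (about 24) showed 50% or more at least once.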
C: 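Whole-cell assay for inhibitors of Mycobacterium tuberculosis growth, labelled Cornell in the record; the read-out is not stated. The concentration is filed as 10 mM, unlikely as a test dose, so the dose is not known. Higher means stronger inhibition (inferred from two other growth screens of the library). Of about 53,000 compounds tested this way, about 900 (1.7%) reached 50% or more in at least one test.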

Results are percentages, as filed. The controls that fix the scale are not given in the record; negative values are as filed. This is an unselected part of the compounds tested.

{"smiles": "O=C(O)C(F)(F)F.O=C(O)C(F)(F)F.[H][C@@]12CCCO[C@]1([H])[C@H](Oc1ccccn1)CN2c1nnc(C)s1", "A": -7.011, "C": -6.614}
{"smiles": "Cc1ccc(CN2CCC3(CC2)CN(c2ccccc2)C(=O)CO3)o1", "B": 16.56}
{"smiles": "CCn1ncc(Nc2[nH]cnc3nncc2-3)c1C", "A": 2.753, "B": 7.368, "C": 1.038}
{"smiles": "Cc1nnc2n1CCN(C(=O)C(C)Oc1ccc(C#N)cc1)C2", "stereo": "stereo not given", "A": 12.96, "B": 12.47, "C": -0.836}
{"smiles": "O=C(c1cn(-c2ccc(F)cc2)nn1)N1CCCC(n2cccn2)C1", "stereo": "stereo not given", "A": -15.41, "B": 21.31}
{"smiles": "Cc1nn(CC(=O)Nc2cccc(F)c2)c(N)c1C#N", "A": 4.908, "B": 8.711, "C": 2.764}
{"smiles": "CCC(C)NC(=O)c1ccc(NC(=O)CCCn2cncn2)c(C)c1", "stereo": "stereo not given", "A": 0.2066, "B": 7.639, "C": -7.769}
{"smiles": "Cn1nc(COc2cncnc2)c2c1CCN(Cc1ccccn1)C2.O=C(O)C(F)(F)F", "A": -1.361, "C": 10.46}
{"smiles": "COc1cccc(CN(C)C(C)c2nccs2)c1OCCn1ccnc1", "stereo": "stereo not given", "A": -39.98, "B": 8.493}
{"smiles": "COc1cc(N2CCC3(CC2)CN(S(C)(=O)=O)c2ccccc23)ncn1", "A": 23.78, "B": 7.143, "C": 11.71}
{"smiles": "COc1cccc(O[C@H]2CCN(c3nc(C)cc(C)n3)CC[C@@H]2O)c1", "A": -26.16, "B": 11.05, "C": 6.067}
{"smiles": "CC(C)c1cc(=O)[nH]c(-c2ccccc2CN2CCC(C)(C)C2)n1", "A": 10.85, "B": 2.997, "C": -3.897}
{"smiles": "CC(c1nc(C(C)(C)C)no1)S(=O)(=O)CC(=O)N(C)C", "stereo": "stereo not given", "A": 4.537, "B": 16.42, "C": 7.025}
{"smiles": "COC[C@]12COC[C@H]1CN(Cc1ccc3c(c1)OCO3)C2", "B": 5.865}
{"smiles": "CN(C)C(=O)C1CN(Cc2ccc(C#N)cc2F)c2ccccc2O1", "stereo": "stereo not given", "A": 20.55, "B": 10.87, "C": 104.6}
{"smiles": "O=C(Nc1ccc2c(c1)OC1(CCCCC1)O2)c1ccc(=O)[nH]n1", "A": 26.46, "B": 8.707, "C": 34.02}
{"smiles": "O=C(c1cnc(O)cn1)N1CCC(CN2CCOCC2)CC1", "A": -5.263, "B": 12.24, "C": 6.967}
{"smiles": "COc1ccc2nnc(CCC(=O)NCc3cccn3C)n2n1", "A": 11.5, "B": 4.91, "C": 39.71}
{"smiles": "CC(=O)Nn1c(C)cc(CN2CCCN(Cc3ccncc3)CC2)c1C", "A": -19.22, "B": 13.64}
{"smiles": "Cc1nc(C)n(C2CCCN(C(=O)Cc3ccc4c(c3)CCC4)C2)n1", "stereo": "stereo not given", "A": -18.36, "B": 14.99, "C": 13.58}
{"smiles": "CC(C)c1nsc(NC2CC(=O)N(C(C)(C)C)C2)n1", "stereo": "stereo not given", "A": 7.709, "B": 16.32, "C": 4.731}
{"smiles": "CC(C)c1n[nH]c(C2CN(Cc3ncc[nH]3)CCO2)n1", "stereo": "stereo not given", "A": 18.44, "B": 1.042, "C": 7.934}
{"smiles": "CC(O)CN1CCN(C(=O)c2cccn2Cc2cccnc2)CC1", "stereo": "stereo not given", "A": -8.44, "B": 14.78}
{"smiles": "Cc1noc(OCc2ccc(C#N)cc2)n1", "A": 2.342, "B": 17.87, "C": 15.16}
{"smiles": "COc1ccc(-n2ccc(C(=O)NCCN3CCCCC3)n2)cc1", "A": -6.928, "B": 15.1, "C": -10.5}
{"smiles": "CCN1CCCC1CN(Cc1ccoc1)CC1CCN(CCOC)CC1", "stereo": "stereo not given", "A": -6.412, "B": 4.124, "C": 36.26}
{"smiles": "[H][C@@]12CCN(C(C)=O)C[C@]1([H])CCN(CCc1c[nH]cn1)C(=O)C2", "A": -26.76, "C": -5.828}
{"smiles": "Cc1cc(CN2CCN3C[C@H](c4ccccc4)[C@@H](CO)[C@H]3C2)on1", "B": 5.753}
{"smiles": "Cc1ccc(CN2CCc3c(C(=O)N(C)C)nn(C)c3C2)s1.O=C(O)C(F)(F)F", "A": 19.46, "C": -3.801}
{"smiles": "CCc1nc(N2CCN(Cc3ncccc3C)CC2)c2cnn(C)c2n1", "A": -17.03, "B": 12.71}
{"smiles": "O=C(O)C(F)(F)F.[H][C@@]12CCN(Cc3ccc(F)cc3)C[C@@]1([H])[C@H](C(=O)N1CCCCO1)CCO2", "A": -25.18, "C": 3.454}
{"smiles": "CC(C(=O)N(C)Cc1nnc2n1CCC2)S(C)(=O)=O", "stereo": "stereo not given", "A": 0.09755, "B": 14.04, "C": 10.57}
{"smiles": "O=C(O)C(F)(F)F.[H][C@@]12CN(C(=O)c3ccsc3)C[C@]1([H])C(=O)N(CCN(C)C)C2", "A": -10.02, "C": 7.065}
{"smiles": "CN(C(=O)c1ccc[nH]1)C1CC(=O)N(Cc2ccccc2)C1=O", "stereo": "stereo not given", "A": 6.427, "B": 13.59, "C": -7.381}
{"smiles": "CCOCCS(=O)(=O)N(CC)Cc1ccc(Cl)s1", "A": 8.826, "B": 9.116}
{"smiles": "NC(=O)N1CC(OCc2cccc3ccccc23)C1", "A": -0.6134, "B": 12.04, "C": 34.95}
{"smiles": "Cc1cccc(CC(=O)N2CCCCC2CN)c1.Cl", "stereo": "stereo not given", "A": -11.3, "C": -0.297}
{"smiles": "CC(=O)N1CCn2c(nnc2C2CCCCN2Cc2ccccc2Cl)C1", "stereo": "stereo not given", "A": -14.58, "B": 4.516, "C": 2.932}

For reference, 5 entries once more:

SMILES,A,B,C
CC(C)c1nsc(NC2CC(=O)N(C(C)(C)C)C2)n1 (stereo not given),7.709%,16.32%,4.731%
CC(=O)N1CCn2c(nnc2C2CCCCN2Cc2ccccc2Cl)C1 (stereo not given),-14.58%,4.516%,2.932%
NC(=O)N1CC(OCc2cccc3ccccc23)C1,-0.6134%,12.04%,34.95%
O=C(Nc1ccc2c(c1)OC1(CCCCC1)O2)c1ccc(=O)[nH]n1,26.46%,8.707%,34.02%
COc1cccc(O[C@H]2CCN(c3nc(C)cc(C)n3)CC[C@@H]2O)c1,-26.16%,11.05%,6.067%